Test results reported in publication PMC9952706.
The exact form of at least one protein or probe is not confirmed. Tags and fusion partners may be left off the protein sequences shown.

Biological target: T1, AdpA (His-tagged) (Streptomyces coelicolor M145) (UniProt Q9L062)
T1 sequence (looked up, limits assumed): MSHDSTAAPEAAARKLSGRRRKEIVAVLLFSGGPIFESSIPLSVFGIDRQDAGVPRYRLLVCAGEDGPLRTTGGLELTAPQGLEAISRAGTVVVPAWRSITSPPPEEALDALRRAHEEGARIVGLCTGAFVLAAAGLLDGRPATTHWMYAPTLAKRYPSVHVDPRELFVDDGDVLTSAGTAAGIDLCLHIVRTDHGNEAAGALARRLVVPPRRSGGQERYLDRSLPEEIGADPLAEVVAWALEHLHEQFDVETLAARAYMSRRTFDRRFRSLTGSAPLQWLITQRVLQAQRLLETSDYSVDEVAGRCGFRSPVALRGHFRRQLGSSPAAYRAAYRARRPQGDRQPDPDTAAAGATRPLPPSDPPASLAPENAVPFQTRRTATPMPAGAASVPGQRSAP
Assay: EMSA
Conditions: 0-3 µM AdpA, 20 nM probe, 2 µg poly(dI-dC), EMSA: 20 mM Tris-HCl pH 8.0, 2 mM EDTA, 20 mM KCl, 0.5 mM DTT, 4% Ficoll-400, 2 µg poly(dI-dC), room temperature, 25 min, recombinant protein, protein details: His tag (pET15b, NdeI/XhoI), probe letters rebuilt from the primers and the genome

Row | Sequence | binding result
1 | TTGCTGGGCATGCACGCCCAGTAGGAGCATTCGCCGCCGACCAGTTCGCTCTCCACGATCGCGGTGGACAGTCCGGCCGCCCGGGTGCGGTCGGCGACGTTCTCGCCGACGGGGCCCGCGCCGATCACGACGACGTCGTACGTGAGGGAATCCGATTGCGTCATGGGGTCAGTCTGGTGGGTGGTGTGCGGCGTGGCCACATGGGTACGTGCGCGGAATACCCACCAGGTCGGCAGTGTTGTGCCGACGGCTTCTCCCCCGAAACCAGGAAGAGGGATCACCTCATGACCAGCACCGTGGAACTCACCAAG (double strand) [trxA3/C (sco0885) promoter probe] | binds
2 | AGGTCGACGACCCCGCTCATGGACATGTTCCGTGGCTGCATGGGTCTATCCTCCCCCGTACGGCGCGCGCGTGTGAAAACCGGGTCGAAAGCCCGCCCGGATGTGTGCTGTTCGGCGTGTGTACTGCCCGATGCGTGTGCTGCTCGGCGCCGGGTCCCCACCCCACGCCCGTGGTCGTCGCTGGGGCGCGGGCGGACCCGCGCTTTCGCTACGAGTCGTAGCGTAATGCCAGGACGGCCCGTCGGAACACCCCACCGCCAGACCCCGTCGCGGTGATCTGTCTCACCACCGGCCGCGTGTTACCCGCCGGTTAAGGTCGGGGGATGCAGAGCAGC (double strand) [trxA4 (sco5419) promoter probe] | binds
3 | CTACAAGGGCAGGGAAGCCTTGCTGGTGGTACTGCCCGACGCCACCAATGACACCCAGGTCACCGCCTACATCGTCGAGACGGCGTGCGTGGATCAGCCCGCGGTGGGCAAGGCCAAGATCCTTCTCGAGCACTCCTACGCGCGTTCGTAGCGGCCCTTCCACCCTCTCGCCAGGCGGGCTGTGCCCTGCCGCCGTGTGCCCGGGCACAGCGGGAATGCGCGCCCCGTAGGATCCGTTAGGTGGGGTGAGAGTTCCGAGTGCAGCTCCACCCGGCCCTGAAGACGCAGTCCAGAGACGAGGAATGAAGCCGTGAGCGACGTCCGAAACGTGATC (double strand) [trxB (sco3890) promoter probe] | binds
